Results are given in words; binding and its absence hold for the method and conditions named. Some entries that bind do so weakly or less than the wild type.
Columns and labels:
DualAE05-SG1201 = assay: SPR (Biacore T200, 37 C), tool antibody captured on mouse anti-human Fc
IgG1_001 = assay: as above

B1: FAB0133hh (antibody, V domains shown)
VH: QSLEESGGRLVTPGTPLTLTCTASGFSLSTYYMNWVRQAPGKGLEWIGTITIDGTAYYASWAKGRFTISRTSTTVDLKAASPTTEDTATYFCARYDGDIWGPGTLVTVSS
VL: DVVMTQTPASVSEPVGGTVTIKCQASQSISTALAWYQQKPGQPPKLLIHGASILESGVPSRFKGSGSGTEFTLTISDLECADVATYYCQCTYYGISYGNAFGGGTKVEIK
For B1, the binding (DualAE05-SG1201) was “binds” and the binding (IgG1_001) was “binds”.

From patent US20230121511A1
